Measurements published in PubChem BioAssay AID1347076 (National Center for Advancing Translational Sciences (NCATS), 2019).
In all, about 400,000 compounds went through this assay and about 13,000 (3.2%) were called active. Inconclusive means that the source gave no clear call. Such entries were picked first, then a sample of the others. Calls follow the shape of the dose curve; as a rule, active = well fitted cell-killing curve with a large enough effect; inconclusive = small, poorly fitted or top-dose-only effect, or effect the other way; inactive = flat fitted curve, though single readings scatter. Potencies of inconclusive entries are doubtful fits and often do not repeat.

assay: qHTS assay for MDR1-selective chemotherapeutics: Primary screen using the drug-selected MDR subline cells KB-V1; details: KB-V1 MDR cells viability, CellTiter-Glo, 72 h; activity change, negative = cytotoxicity: at 46.1 µM (top of the series); also: nearly all actives have a fitted effect of over 60% in size
Summary of the method: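 Cytotoxicity via CellTiter-Glo luminescence after 72 h compound exposure at 37 degrees C. Cells: drug-selected KB-V1 line, DMEM phenol-red free plus 10% FBS. Compounds tested at multiple concentrations; normalized data fitted to concentration-effect curves.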
% is scaled to controls: 0 for no effect and ±100 for the full control effect; potency is read from the fitted curve at half-maximal effect.

SMILES | Potency | activity change, negative = cytotoxicity
O=c1cc(-c2ccccc2)oc2ccc(O)cc12 | active: 5.8 µM | –
Cc1cccc(NS(=O)(=O)c2ccc(C3CCCCC3)cc2)c1 | inconclusive: 23.1 µM [cytotoxic, single point] | –
CC1CCN(S(=O)(=O)c2ccc(C(=O)Nc3ncccc3O)cc2)CC1 | inconclusive: 25.9 µM [cytotoxic, single point] | –
COc1ccc(Nc2ncnc3c2cnn3-c2ccc(C)cc2)cc1Cl | – | inactive: 0%
CCNC(=S)NNC(=O)c1ccc(OC)cc1 | inconclusive: 29.1 µM [cytotoxic, single point] | –
COc1cccc(C(=O)OCC(=O)Nc2ccc3c(c2)OCCO3)c1 | – | inactive: 19.9%
COc1ccc(-c2n[nH]c(=S)n2-c2ccc(C)cc2)cc1 | – | inactive: 0.797%
COc1cc2c(cc1OC)C1(CCCC1)CNC2c1ccc([N+](=O)[O-])cc1 (configuration not stated) | – | inactive: -3.24%
Cc1c(=O)n(OCc2cccc(F)c2)c2ccccc2[n+]1[O-] | inconclusive: 20.6 µM [cytotoxic, single point] | –
CCOC(=O)C1C(c2ccccc2)C(C(=O)OCC)S(=O)(=O)C(CCN(CC)CC)S1(=O)=O (configuration not stated) | – | inactive: 9.95%
CC[n+]1c(C)sc2c(C)cc(C)cc21 | inconclusive: 11.6 µM [rising, partial curve, poor fit] | –
CC(C)CC1C(=O)N2CCC[C@H]2[C@]2(O)O[C@](NC(=O)[C@@H]3C=C4c5cccc6[nH]c(Br)c(c56)C[C@H]4N(C)C3)(C(C)C)C(=O)N12 (some centres not stated) | – | inactive: 0%
Cc1ccc(C)c(N(C(=O)Cc2cccs2)C(C(=O)NC2CCCC2)c2ccc(C)o2)c1 (configuration not stated) | inconclusive: 25.9 µM [cytotoxic, partial curve, poor fit] | –
O=C(COc1ccc([N+](=O)[O-])cc1)NCCc1nc2ccccc2[nH]1 | inconclusive: 1.16 µM [rising, full curve] | –
CCCSCCCNC(=O)c1ccc2c(c1)sc1nc(-c3ccc(OCC)cc3)cn12 | – | inactive: -3.78%
COc1cccc(NC(=O)CN(C)C(=O)c2cc3c(s2)CCC3)c1 | inconclusive: 20.6 µM [cytotoxic, partial curve] | –
COc1ccccc1NC(=O)c1oc2ccccc2c1NC(=O)C1CCCCC1 | – | inactive: 0%
CC1(C)C(=O)Nc2ccccc2N1C(=O)CN1C(=O)NC(CCc2ccccc2)C1=O (configuration not stated) | inconclusive: 29.1 µM [rising, single point] | –
CC(NC(=O)CSc1ccc(S(=O)(=O)N2CCOCC2)cn1)c1ccc(Cl)cc1Cl (configuration not stated) | – | inactive: -2.88%
COc1cc(-c2cc(C(=O)N(C)Cc3ccccc3)c3ccccc3n2)cc(OC)c1OC | inconclusive: 20.6 µM [cytotoxic, partial curve, poor fit] | –
c1ccc(-c2csc(NNC3=NCCCCC3)n2)cc1 | inconclusive: 20.6 µM [cytotoxic, partial curve, poor fit] | –
O=C(Nc1ccccc1F)C1CCCN(S(=O)(=O)c2cccc3cccnc23)C1 (configuration not stated) | inconclusive: 10.3 µM [cytotoxic, partial curve, poor fit] | –
O=C(Oc1cccc(/C=N/NC(=O)c2ccccn2)c1)c1ccc([N+](=O)[O-])cc1 | – | inactive: -10.9%
CC(C)(C)c1ccc(C(=O)C2CCCN(C(=O)C3CCOCC3)C2)cc1 (configuration not stated) | inconclusive: 8.2 µM [cytotoxic, partial curve] | –

One compound at a time, as listed above.
Cc1ccc(C)c(N(C(=O)Cc2cccs2)C(C(=O)NC2CCCC2)c2ccc(C)o2)c1 (configuration not stated) is listed as Potency: inconclusive: 25.9 µM [cytotoxic, partial curve, poor fit]
O=C(Oc1cccc(/C=N/NC(=O)c2ccccn2)c1)c1ccc([N+](=O)[O-])cc1 is listed as activity change, negative = cytotoxicity: inactive: -10.9%
COc1cccc(C(=O)OCC(=O)Nc2ccc3c(c2)OCCO3)c1 is listed as activity change, negative = cytotoxicity: inactive: 19.9%
Cc1cccc(NS(=O)(=O)c2ccc(C3CCCCC3)cc2)c1 is listed as Potency: inconclusive: 23.1 µM [cytotoxic, single point]

The listing continues:

SMILES | Potency | activity change, negative = cytotoxicity
COc1ccccc1Nc1nn2c(=O)c3ccc(C(=O)NCCC4=CCCCC4)cc3nc2s1 | inconclusive: 29.1 µM [cytotoxic, single point] | –
CCOc1ccc(CCNC(=O)C(O)c2ccccc2)cc1 (configuration not stated) | – | inactive: 8.03%
c1ccc(-c2nc3ccccc3o2)nc1 | – | inactive: -27.9%
Cn1cc(C(=O)Nc2ccc(F)c(F)c2)cn1 | inconclusive: 29.1 µM [rising, single point] | –
COc1ccc(NC(=O)Cn2c(=O)ccc3cc(S(=O)(=O)N4CCCC4)ccc32)cc1Cl | – | inactive: -26.1%
COc1ccc(C2NC(=S)NC3=C2CCc2cc(OC)ccc23)cc1 (configuration not stated) | – | inactive: -8.72%
CCOC(=O)c1c(-c2ccc(C)o2)csc1NC(=O)CN1CCOCC1 | inconclusive: 18.4 µM [cytotoxic, single point] | –
CSc1ccc(CSCC(=O)N2CCN(S(=O)(=O)c3ccc(C)cc3C)CC2)cc1 | inconclusive: 20.6 µM [cytotoxic, single point] | –
CC(=O)Nc1ccc(NC(=O)C2Cc3c(-c4cccc(F)c4)ccnc3O2)cc1 (configuration not stated) | – | inactive: 3.23%
O=C(c1cccc(Cl)c1)C1CCCN(Cc2ccc(N3CCNC3=O)cc2)C1 (configuration not stated) | inconclusive: 4.61 µM [cytotoxic, full curve, poor fit] | –
CC(C)C1C(C#N)=C(N)Oc2n[nH]c(-c3ccc4ccccc4c3)c21 (configuration not stated) | active: 8.2 µM | –
CC(C)(C)c1ccc(-c2nc(SCC(=O)Nc3ccccc3F)n3[nH]c(=O)cc3n2)cc1 | inconclusive: 29.1 µM [rising, single point] | –
CCc1ccc2oc(C(=O)Nc3ccccc3C(=O)OC)cc(=O)c2c1 | – | inactive: 3.37%
CC(CCc1ccc(O)cc1)NCCc1ccc(O)c(O)c1 (configuration not stated) | – | inactive: 1.2%
COC(=O)c1ccc2c(c1)C(C)(C)C(/C=C/c1ccccc1O)=[N+]2C | inconclusive: 4.47 µM [cytotoxic, full curve, poor fit] | –
O=C(Cc1ccccc1)NCC(=O)Nc1cccc(Cl)c1 | inconclusive: 18.4 µM [rising, partial curve, poor fit] | –
Cc1cccn2c(=O)c(C(=O)NCCc3ccc(S(N)(=O)=O)cc3)c(O)nc12 | – | inactive: 15.3%
CC1CN(C(=O)C2CCCC2)C(C)CN1C(=O)C1CCCC1 (configuration not stated) | active: 10.3 µM | –
CC(C)S(=O)(=O)c1csc(NC(=O)Nc2cc(Cl)ccc2Cl)c1Cl | inconclusive: 20.6 µM [cytotoxic, single point] | –
CCc1cc(-c2n[nH]c(=S)n2-c2ccccc2C)cs1 | active: 18.4 µM | –
Cc1cccc(Nc2nnc(SCC(=O)NC(=O)CN3CCCC3=O)s2)c1 | inconclusive: 29.1 µM [rising, single point] | –
COc1ccc(NC(=O)c2c[nH]c(=O)n(-c3ccc(C)c(C)c3)c2=O)c(OC)c1 | – | inactive: 42.8%
COc1cc(CCCN2C(=O)C(=O)NC[C@@H]2CCCCN)cc(OC)c1OC | inconclusive: 20.6 µM [rising, single point] | –
CN1CCN(c2ccc(-c3cc(NC=O)c4ncc(-c5ccccc5)n4c3)cc2)CC1 | active: 23.1 µM | –

SMILES | Potency | activity change, negative = cytotoxicity
COc1ccc(CNc2nc3ccc(C)cc3s2)c(OC)c1OC | – | inactive: -4.12%
CC1=C(C#N)C(=O)NC(=O)/C1=C\c1ccc(-c2ccc(C)cc2[N+](=O)[O-])o1 | inconclusive: 18.4 µM [rising, single point] | –
O=C(O)Cn1ccc2cc(S(=O)(=O)N3CCCCCC3)ccc21 | inconclusive: 29.1 µM [rising, single point] | –
COc1cccc(CNc2ccc(S(N)(=O)=O)cc2)c1OC | inconclusive: 29.1 µM [cytotoxic, single point] | –
COc1ccc(CNC(=O)COCc2cc(-c3cccs3)on2)cc1 | – | inactive: -5.88%
CC(=O)Nc1cccc(-c2ccnc3c2CC(C(=O)NCCC(F)(F)F)O3)c1 (configuration not stated) | – | inactive: 4.03%
COc1ccccc1CN1C[C@@H]2C[C@@H](c3cccc(C)c3)N3CCC[C@@]23C1=O | – | inactive: -7.66%
CCCCn1c(NCc2ccc(N(C)C)cc2)nc2ccccc21 | inconclusive: 1.84 µM [cytotoxic, full curve] | –
Cc1ccc2nc(-c3ccc(SCC(=O)O)nc3)[nH]c2c1 | – | inactive: 1.75%
COc1ccccc1NC(=O)CSc1nc(-c2ccccc2F)nc2cc(=O)[nH]n12 | – | inactive: 14.1%
NS(=O)(=O)c1ccc(-c2ccc(/C=C3\SC(=S)N(C4CCS(=O)(=O)C4)C3=O)o2)cc1 (configuration not stated) | – | inactive: 0.598%
CC(=O)c1cn(CC(=O)NCc2cccnc2)c2ccccc12 | inconclusive: 9.2 µM [cytotoxic, partial curve, poor fit] | –
CCC(c1nnnn1CCOC)N1CCN(Cc2ccccc2OC)CC1 (configuration not stated) | inconclusive: 18.4 µM [cytotoxic, partial curve, poor fit] | –
Cc1ccc(C(=O)CCC(=O)NNC(=O)c2ccccc2O)cc1 | inconclusive: 29.1 µM [rising, single point] | –
Cc1ccc(-n2c(=O)c3c(c4cc(C)ccc4n3C)n(CC(=O)NCc3ccccc3)c2=O)cc1 | – | inactive: -6.66%
CCOC(=O)c1ccc(-n2[nH]c(-c3ccccc3)cc2=O)cc1 | inconclusive: 29.1 µM [cytotoxic, single point] | –
Cc1nc(-n2[nH]c3c(c2=O)CCCC3)[nH]c(=O)c1Cc1ccccc1 | active: 2.59 µM | –
C[C@H](CO)N1C[C@H](C)[C@@H](CN(C)S(C)(=O)=O)Oc2ccc(NS(=O)(=O)c3ccccc3)cc2C1=O | inconclusive: 4.11 µM [rising, full curve, poor fit] | –
Cc1ccc2occ(CC(=O)N(Cc3ccc(C(C)C)cc3)C3CCS(=O)(=O)C3)c2c1 (configuration not stated) | inconclusive: 14.6 µM [cytotoxic, single point] | –
Clc1cccc(CSc2ccc(-c3ccco3)nn2)c1 | inconclusive: 29.1 µM [cytotoxic, single point] | –
CCn1c(C)nc2cc(S(=O)(=O)Nc3ccc(C)cc3)ccc21 | – | inactive: -18.3%
O=C(NCCOC(=O)c1ccc(Cl)cc1)c1cccnc1 | – | inactive: -10.1%
CC(C)(C)C(=O)NC(=S)Nc1cc(C(F)(F)F)ccc1N1CCOCC1 | inconclusive: 29.1 µM [cytotoxic, partial curve, poor fit] | –
O=C1[C@@H]2[C@@H]3C[C@@H]([C@H]4ON=C(c5ccc(Cl)cc5Cl)[C@@H]34)[C@@H]2C(=O)N1C1CCCCC1 | inconclusive: 23.1 µM [cytotoxic, partial curve, poor fit] | –
